Results published in US9259001B2, “5-phenyl-substituted N-(tetrazol-5-yl) aryl carboxylic acid amides and N-(triazol-5-yl) aryl carboxylic acid amides, and use thereof as herbicides” (BAYER INTELLECTUAL PROPERTY GMBH, priority 2011, dated 2016).
Some entries share one result that the patent states for a list of compounds. For at least one compound, name, drawing or mass did not settle the structure.

What was measured:
Format in all cases: in vivo
Amaranthus retroflexus [1] = assay: Pre-emergence herbicidal action against harmful plants; conditions: application rate 320 g/ha, visual assessment after 3 weeks
Avena fatua = assay: as above; conditions: application rate 320 g/ha, visual assessment after 3 weeks
Alopecurus myosuroides = assay: as above; conditions: application rate 320 g/ha, visual assessment after 3 weeks
Abutilon theophrasti [2] = assay: as above; conditions: application rate 320 g/ha, visual assessment after 3 weeks
Veronica persica [3] = assay: as above; conditions: application rate 320 g/ha, visual assessment after 3 weeks
Echinochloa crus galli = assay: as above; conditions: application rate 320 g/ha, visual assessment after 3 weeks
Amaranthus retroflexus [4] = assay: Post-emergence herbicidal action against harmful plants; conditions: application rate 80 g/ha, visual assessment after about 3 weeks
Stellaria media = assay: as above; conditions: application rate 80 g/ha, visual assessment after about 3 weeks
Abutilon theophrasti [5] = assay: as above; conditions: application rate 80 g/ha, visual assessment after about 3 weeks
Veronica persica [6] = assay: as above; conditions: application rate 80 g/ha, visual assessment after about 3 weeks
Cyperus serotinus = assay: Pre-emergence herbicidal action against harmful plants; conditions: application rate 320 g/ha, visual assessment after 3 weeks
Setaria viridis = assay: as above; conditions: application rate 320 g/ha, visual assessment after 3 weeks

COc1c(SC)cc(F)cc1C(=O)Nc1nnnn1C [2-37]
at least 80%: herbicidal activity in percent against Amaranthus retroflexus (Amaranthus retroflexus [1]) | herbicidal activity in percent against Avena fatua (Avena fatua) | herbicidal activity in percent against Alopecurus myosuroides (Alopecurus myosuroides) | herbicidal activity in percent against Abutilon theophrasti (Abutilon theophrasti [2]) | herbicidal activity in percent against Veronica persica (Veronica persica [3]) | herbicidal activity in percent against Echinochloa crus galli (Echinochloa crus galli)

COCCn1nnnc1NC(=O)c1cc(C)c(S(C)(=O)=O)c(N(C)C)c1C [2-83]
at least 80%: herbicidal action in percent against Amaranthus retroflexus (Amaranthus retroflexus [4]) | herbicidal action in percent against Stellaria media (Stellaria media) | herbicidal activity in percent against Veronica persica (Veronica persica [3]) | herbicidal action in percent against Abutilon theophrasti (Abutilon theophrasti [5]) | herbicidal activity in percent against Echinochloa crus galli (Echinochloa crus galli) | herbicidal action in percent against Veronica persica (Veronica persica [6])

CCn1nnnc1NC(=O)c1cc(C)c(SC)c(C)c1Cl [2-46]
at least 80%: herbicidal activity in percent against Cyperus serotinus (Cyperus serotinus) | herbicidal activity in percent against Setaria viridis (Setaria viridis) | herbicidal action in percent against Abutilon theophrasti (Abutilon theophrasti [5]) | herbicidal action in percent against Veronica persica (Veronica persica [6])

Cc1cc(C(=O)Nc2nnnn2C)c(Cl)c(C)c1[S+](C)[O-] (stereo not shown) [2-44]
at least 80%: herbicidal activity in percent against Cyperus serotinus (Cyperus serotinus) | herbicidal activity in percent against Setaria viridis (Setaria viridis) | herbicidal action in percent against Abutilon theophrasti (Abutilon theophrasti [5]) | herbicidal action in percent against Veronica persica (Veronica persica [6])

Cc1cc(C(=O)Nc2nnnn2C)c(Br)c(S(C)(=O)=O)c1 [2-27]
at least 80%: herbicidal activity in percent against Cyperus serotinus (Cyperus serotinus) | herbicidal activity in percent against Setaria viridis (Setaria viridis) | herbicidal action in percent against Abutilon theophrasti (Abutilon theophrasti [5]) | herbicidal action in percent against Veronica persica (Veronica persica [6])

CCCn1nnnc1NC(=O)c1cc(C)c(S(C)(=O)=O)c(C)c1Cl [2-51]
at least 80%: herbicidal activity in percent against Veronica persica (Veronica persica [3]) | herbicidal action in percent against Abutilon theophrasti (Abutilon theophrasti [5]) | herbicidal activity in percent against Echinochloa crus galli (Echinochloa crus galli) | herbicidal action in percent against Veronica persica (Veronica persica [6])

CSc1cc(C)cc(C(=O)Nc2nnnn2C)c1Br [2-25]
at least 80%: herbicidal activity in percent against Avena fatua (Avena fatua) | herbicidal activity in percent against Abutilon theophrasti (Abutilon theophrasti [2]) | herbicidal action in percent against Abutilon theophrasti (Abutilon theophrasti [5]) | herbicidal action in percent against Veronica persica (Veronica persica [6])

Cc1cc(C(=O)Nc2nnnn2C)c(Cl)c(S(C)(=O)=O)c1 [2-18]
at least 80%: herbicidal activity in percent against Cyperus serotinus (Cyperus serotinus) | herbicidal activity in percent against Setaria viridis (Setaria viridis) | herbicidal action in percent against Abutilon theophrasti (Abutilon theophrasti [5]) | herbicidal action in percent against Veronica persica (Veronica persica [6])

CCn1nnnc1NC(=O)c1cc(C)cc(SC)c1Br [2-28]
at least 80%: herbicidal activity in percent against Avena fatua (Avena fatua) | herbicidal activity in percent against Abutilon theophrasti (Abutilon theophrasti [2]) | herbicidal action in percent against Abutilon theophrasti (Abutilon theophrasti [5]) | herbicidal action in percent against Veronica persica (Veronica persica [6])

Cc1cc(C(=O)Nc2nnnn2C)c(Cl)c([S+](C)[O-])c1 (stereo not shown) [2-17]
at least 80%: herbicidal activity in percent against Cyperus serotinus (Cyperus serotinus) | herbicidal activity in percent against Setaria viridis (Setaria viridis) | herbicidal action in percent against Abutilon theophrasti (Abutilon theophrasti [5]) | herbicidal action in percent against Veronica persica (Veronica persica [6])

CCn1nnnc1NC(=O)c1cc(C)cc(S(C)(=O)=O)c1Br [2-30]
at least 80%: herbicidal activity in percent against Cyperus serotinus (Cyperus serotinus) | herbicidal activity in percent against Setaria viridis (Setaria viridis) | herbicidal action in percent against Abutilon theophrasti (Abutilon theophrasti [5]) | herbicidal action in percent against Veronica persica (Veronica persica [6])

CCn1nnnc1NC(=O)c1cc(C)cc([S+](C)[O-])c1Br (stereo not shown) [2-29]
at least 80%: herbicidal activity in percent against Avena fatua (Avena fatua) | herbicidal activity in percent against Abutilon theophrasti (Abutilon theophrasti [2]) | herbicidal action in percent against Abutilon theophrasti (Abutilon theophrasti [5]) | herbicidal action in percent against Veronica persica (Veronica persica [6])

Cc1cc(C(=O)Nc2nnnn2C)c(Cl)c(C)c1S(C)(=O)=O [2-45]
at least 80%: herbicidal activity in percent against Cyperus serotinus (Cyperus serotinus) | herbicidal activity in percent against Setaria viridis (Setaria viridis) | herbicidal action in percent against Abutilon theophrasti (Abutilon theophrasti [5]) | herbicidal action in percent against Veronica persica (Veronica persica [6])

CSc1cc(Cl)c(C(=O)Nc2ncnn2C)cc1C [1-14]
at least 80%: herbicidal action in percent against Amaranthus retroflexus (Amaranthus retroflexus [4]) | herbicidal action in percent against Stellaria media (Stellaria media) | herbicidal action in percent against Abutilon theophrasti (Abutilon theophrasti [5]) | herbicidal action in percent against Veronica persica (Veronica persica [6])

CCCn1nnnc1NC(=O)c1cc(C)cc([S+](C)[O-])c1Br (stereo not shown) [2-32]
at least 80%: herbicidal action in percent against Amaranthus retroflexus (Amaranthus retroflexus [4]) | herbicidal action in percent against Stellaria media (Stellaria media) | herbicidal activity in percent against Veronica persica (Veronica persica [3]) | herbicidal activity in percent against Echinochloa crus galli (Echinochloa crus galli)

CCn1nnnc1NC(=O)c1cc(F)c(C#N)cc1F [2-67]
at least 80%: herbicidal action in percent against Amaranthus retroflexus (Amaranthus retroflexus [4]) | herbicidal action in percent against Stellaria media (Stellaria media)

CCCn1nnnc1NC(=O)c1cc(C)cc(S(C)(=O)=O)c1Cl [2-24]
at least 80%: herbicidal activity in percent against Cyperus serotinus (Cyperus serotinus) | herbicidal activity in percent against Setaria viridis (Setaria viridis) | herbicidal action in percent against Abutilon theophrasti (Abutilon theophrasti [5]) | herbicidal action in percent against Veronica persica (Veronica persica [6])

CCn1nnnc1NC(=O)c1cc(C)c([S+](C)[O-])c(C)c1Cl (stereo not shown) [2-47]
at least 80%: herbicidal activity in percent against Cyperus serotinus (Cyperus serotinus) | herbicidal activity in percent against Setaria viridis (Setaria viridis) | herbicidal action in percent against Abutilon theophrasti (Abutilon theophrasti [5]) | herbicidal action in percent against Veronica persica (Veronica persica [6])

Cc1cc(C(=O)Nc2nnnn2C)c(Cl)cc1S(C)(=O)=O [2-39]
at least 80%: herbicidal activity in percent against Veronica persica (Veronica persica [3]) | herbicidal action in percent against Abutilon theophrasti (Abutilon theophrasti [5]) | herbicidal activity in percent against Echinochloa crus galli (Echinochloa crus galli) | herbicidal action in percent against Veronica persica (Veronica persica [6])

Cc1cc(C(=O)Nc2nnnn2C)c(Cl)c(C)c1F [2-42]
at least 80%: herbicidal activity in percent against Avena fatua (Avena fatua) | herbicidal action in percent against Amaranthus retroflexus (Amaranthus retroflexus [4]) | herbicidal action in percent against Stellaria media (Stellaria media) | herbicidal activity in percent against Abutilon theophrasti (Abutilon theophrasti [2])

Cn1nnnc1NC(=O)c1cc(F)c(C#N)cc1F [2-66]
at least 80%: herbicidal action in percent against Amaranthus retroflexus (Amaranthus retroflexus [4]) | herbicidal action in percent against Stellaria media (Stellaria media)

CCn1nnnc1NC(=O)c1cc(C)c(S(C)(=O)=O)c(N(C)C)c1C [2-69]
at least 80%: herbicidal activity in percent against Amaranthus retroflexus (Amaranthus retroflexus [1]) | herbicidal activity in percent against Alopecurus myosuroides (Alopecurus myosuroides) | herbicidal action in percent against Amaranthus retroflexus (Amaranthus retroflexus [4]) | herbicidal action in percent against Stellaria media (Stellaria media) | herbicidal activity in percent against Veronica persica (Veronica persica [3]) | herbicidal action in percent against Abutilon theophrasti (Abutilon theophrasti [5]) | herbicidal activity in percent against Echinochloa crus galli (Echinochloa crus galli) | herbicidal action in percent against Veronica persica (Veronica persica [6])

Cc1cc(C(=O)Nc2nnnn2C)c(Br)c([S+](C)[O-])c1 (stereo not shown) [2-26]
at least 80%: herbicidal activity in percent against Avena fatua (Avena fatua) | herbicidal activity in percent against Abutilon theophrasti (Abutilon theophrasti [2]) | herbicidal action in percent against Abutilon theophrasti (Abutilon theophrasti [5]) | herbicidal action in percent against Veronica persica (Veronica persica [6])

CCNc1c(C)c(C(=O)Nc2nnnn2C)cc(C)c1S(C)(=O)=O [2-62]
at least 80%: herbicidal activity in percent against Cyperus serotinus (Cyperus serotinus) | herbicidal activity in percent against Setaria viridis (Setaria viridis) | herbicidal action in percent against Abutilon theophrasti (Abutilon theophrasti [5]) | herbicidal action in percent against Veronica persica (Veronica persica [6])

Cc1cc(C(=O)Nc2nnnn2C)c(C)c(N(C)C)c1S(C)(=O)=O [2-61]
at least 80%: herbicidal activity in percent against Veronica persica (Veronica persica [3]) | herbicidal action in percent against Abutilon theophrasti (Abutilon theophrasti [5]) | herbicidal activity in percent against Echinochloa crus galli (Echinochloa crus galli) | herbicidal action in percent against Veronica persica (Veronica persica [6])

CSc1cc(C)cc(C(=O)Nc2nnnn2C)c1I [2-34]
at least 80%: herbicidal activity in percent against Avena fatua (Avena fatua) | herbicidal activity in percent against Abutilon theophrasti (Abutilon theophrasti [2]) | herbicidal action in percent against Abutilon theophrasti (Abutilon theophrasti [5]) | herbicidal action in percent against Veronica persica (Veronica persica [6])

CCCn1nnnc1NC(=O)c1cc(C)c([S+](C)[O-])c(C)c1Cl (stereo not shown) [2-50]
at least 80%: herbicidal activity in percent against Veronica persica (Veronica persica [3]) | herbicidal action in percent against Abutilon theophrasti (Abutilon theophrasti [5]) | herbicidal activity in percent against Echinochloa crus galli (Echinochloa crus galli) | herbicidal action in percent against Veronica persica (Veronica persica [6])
